## Cell number after 72 h of treatment

Values as published with doi:10.1371/journal.pone.0140310, rounded.

Compounds and concentrations:
A-769662, 2 µM: N#Cc1c(O)c2c(-c3ccc(-c4ccccc4O)cc3)csc2[nH]c1=O
XAV939, 2 µM: Oc1nc(-c2ccc(C(F)(F)F)cc2)nc2c1CSCC2
sorafenib, 0.4 µM: CNC(=O)c1cc(Oc2ccc(NC(=O)Nc3ccc(Cl)c(C(F)(F)F)c3)cc2)ccn1
FH535, 1 µM: Cc1cc([N+](=O)[O-])ccc1NS(=O)(=O)c1cc(Cl)ccc1Cl
MK-2206, 0.4 µM: NC1(c2ccc(-c3nc4ccn5c(=O)[nH]nc5c4cc3-c3ccccc3)cc2)CCC1
GW9662, 2 µM: O=C(Nc1ccccc1)c1cc([N+](=O)[O-])ccc1Cl
tozasertib, 0.006 µM: Cc1cc(Nc2cc(N3CCN(C)CC3)nc(Sc3ccc(NC(=O)C4CC4)cc3)n2)n[nH]1
PLX4720, 0.08 µM: CCCS(=O)(=O)Nc1ccc(F)c(C(=O)c2c[nH]c3ncc(Cl)cc23)c1F
embelin, 1.2 µM: CCCCCCCCCCCC1=C(O)C(=O)C=C(O)C1=O
vismodegib, 1 µM: CS(=O)(=O)c1ccc(C(=O)Nc2ccc(Cl)c(-c3ccccn3)c2)c(Cl)c1
vincristine, 0.0001 µM: CC[C@]1(O)C[C@H]2CN(CCc3c([nH]c4ccccc34)[C@@](C(=O)OC)(c3cc4c(cc3OC)N(C=O)[C@H]3[C@@](O)(C(=O)OC)[C@H](OC(C)=O)[C@]5(CC)C=CCN6CC[C@]43[C@@H]65)C2)C1
pioglitazone, 2 µM: CCc1ccc(CCOc2ccc(CC3SC(=O)NC3=O)cc2)nc1 (stereo not drawn)
dorsomorphin, 0.4 µM: c1cc(-c2cnn3cc(-c4ccc(OCCN5CCCCC5)cc4)cnc23)ccn1
perifosine, 0.4 µM: CCCCCCCCCCCCCCCCCCOP(=O)([O-])OC1CC[N+](C)(C)CC1
bexarotene, 2 µM: C=C(c1ccc(C(=O)O)cc1)c1cc2c(cc1C)C(C)(C)CCC2(C)C
CP-690550, 1 µM: C[C@@H]1CCN(C(=O)CC#N)C[C@@H]1N(C)c1ncnc2[nH]ccc12
KU-55933, 1 µM: O=c1cc(-c2cccc3c2Sc2ccccc2S3)oc(N2CCOCC2)c1

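The test systems are human melanoma cell lines, treated with a pair of drugs for 72 h and then stained and imaged. Each value is the count of nuclei relative to DMSO-treated wells, in %, so that 100 equals the control. Concentrations were fixed for each drug; these are the lower of two levels, a fifth of the higher. The file gives one value for each pair and line, without errors, so small differences may be noise.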 This is part of the screen, not chosen by result.

Combination	A2058
embelin + tozasertib	104
vincristine + pioglitazone	20.1
tozasertib + A-769662	90.3
embelin + vismodegib	89.1
perifosine + GW9662	86.2
XAV939 + perifosine	68.2
tozasertib + pioglitazone	103
MK-2206 + embelin	92.9
tozasertib + dorsomorphin	95.4
dorsomorphin + PLX4720	105
KU-55933 + CP-690550	85.7
vincristine + GW9662	42.5
KU-55933 + sorafenib	105
XAV939 + KU-55933	87.6
pioglitazone + MK-2206	92.2
FH535 + tozasertib	73.8
pioglitazone + sorafenib	97.8
dorsomorphin + vincristine	15.1
GW9662 + PLX4720	109
vismodegib + FH535	84.2
KU-55933 + MK-2206	81.2
KU-55933 + tozasertib	87.4
pioglitazone + perifosine	78.6
CP-690550 + embelin	103
pioglitazone + PLX4720	94.6
CP-690550 + A-769662	117
A-769662 + MK-2206	93.3
bexarotene + FH535	101

Repeated from the top, 2 entries:

Combination	A2058
embelin + tozasertib	104
vincristine + pioglitazone	20.1